The data set concerns BxPC3 cells (shSki). Description: MTT cell viability assay, BxPC3 shSki. In kind it is cell-based, human. Conditions: 72 hr. As to the method:
FIG. 24. Effect of the prodrug on cell viability of BxPC3 cells (shGFP and shSki). Cells were treated with the indicated dose of drugs (BKAc-5FCR or 5FCR) for 72 hr followed by MTT assay. Data represent mean values of triplicate measurements±standard deviation. IC50 values were derived from nonlinear curve fit of the dose response data using an outlier's exclusion, variable slope model (GraphPad Prism software). All values are means of at least two independent experiments.
The in vitro efficacy of the compounds in a series of BxPC3 and CFPac-1 derivatives with reduced Class I HDAC activity following Ski knockdown (shSki), HDAC3 knockdown and control (shGFP) was assessed. The growth inhibitory/viability effects of the compounds (IC50 value, the concentration resulting in 50% growth inhibition) on the various cell lines were determined by dose response curve analysis (GraphPad Prism software) of MTT [3-(4,5dimethylthiazol-2-yl)-2,5-diphenyl-tetrazolium bromide] cell viability assay. If the prodrugs are activated in an HDAC-dependent manner, the cells with reduced HDAC activity would be predicted to be more resistant to the prodrug treatment than control cells, while the effect of free parental drugs on both cells would be expected to be similar.
(In general: Tetrazolium dyes change colour on reduction, which living cells bring about.)

With `Nc1nc(=O)n([C@@H]2O[C@H](CO)[C@@H](O)[C@H]2O)cc1F` [5FCR, 5-fluorocytidine], the “Difference in IC50 values, shSki versus shGFP” value is “no significant changes”.

Consider `CC(=O)NCCCCC(NC(=O)OC(C)(C)C)C(=O)Nc1nc(=O)n([C@@H]2O[C@H](CO)[C@@H](O)[C@H]2O)cc1F` (stereo partly drawn) [BKAc-5FCR, t-butyl (6-acetamido-1-((1-((2R,3R,4S,5R)-3,4-dihydroxy-5-(hydroxymethyl)tetrahydrofuran-2-yl)-5-fluoro-2-oxo-1,2-dihydropyrimidin-4-yl)amino)-1-oxohexan-2-yl) carbamate], for which the “Difference in IC50 values, shSki versus shGFP” value is “two-fold”.

Source of the values: patent US20160184459A1, “CANCER CELL SPECIFIC IMAGING PROBES AND METHODS OF USE” (THE RESEARCH FOUNDATION FOR THE STATE UNIVERSITY OF NEW YORK, priority 2013, published 2016).
